Data on 61 molecules can be found in PubChem BioAssay AID493014 (National Center for Advancing Translational Sciences (NCATS), 2011).

The term AC50 denotes the midpoint of the concentration-response curve, whichever way the signal moves.

Values joined by “and” are separate entries in the source; they are usually repeats but may differ in a detail not shown here. Equal values may be shown once. Some of the results follow. Shown are side measurements of this screen, not its main read-out; they come without a call. Compounds called inactive in the main read-out are mostly missing here. The note in brackets gives the kind of curve behind each potency; many fits are weak.

A short description of the assay: qHTS Assay to Find Inhibitors of Chronic Active B-Cell Receptor Signaling. The settings on record: ABC-DLBCL IkBa-CBG/CBR reporter, luminescence ratio (green luciferase fused to IkBa over red control in TMD8 lymphoma cells), 4 h. The method, boiled down: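 TMD8 ABC-DLBCL cells carrying doxycycline-inducible green luciferase fused to IkappaBalpha plus unfused red luciferase were exposed to compounds (up to 46 uM) for 4 hrs at 37C. Activity came from the overlap-corrected green/red luminescence ratio.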
On the technique in general: qHTS replaces the single test concentration by a dilution series.

[1] abbreviates: measured here: CBR red luminescence, cell number.
[2] abbreviates: measured here: IkBa-CBG green luminescence.

As to `O=C(O)c1ccc2c(c1)C(=O)N(NC(=O)c1ccccc1)C2=O`, under setting [1], the AC50 is 11.2 µM [falling, partial curve, poor fit].
In the case of `Cc1c(NC(=O)C(C)Sc2nccn2C)c(=O)n(-c2ccccc2)n1C` (stereo not drawn), under setting [1], the AC50 is 0.92 µM [falling, full curve].
With `COC(=O)CCCC1=CC2=CC(=O)C(C)(OC(=O)c3cccs3)C(=O)C2=CN1c1ccc(OC)cc1` (stereo not drawn), the AC50 under setting [1] is 2.82 µM [rising, partial curve, poor fit].
Turning to `O=c1cc(-c2ccc(F)cc2F)[nH]c2ccccc12`, the AC50 under setting [1] is 13 µM [rising, partial curve, poor fit].
The same measure, in the same setting: the same measure for `Cc1ccc(C(NC(=O)/C=C\c2ccc3c(c2)OCO3)C(=O)Nc2ccc3c(c2)OCO3)cc1` (stereo not drawn): 4.11 µM [rising, full curve, poor fit]; for `Cc1cccc(NC(=O)CSc2nc3[nH]ncc3c(=O)n2-c2ccccc2)c1`: 7.31 µM [falling, partial curve, poor fit]; for `COc1ccc(C(=O)OCC(=O)NCc2ccco2)cc1OC`: 29.1 µM [rising, single point].
Consider `CCN(CCCNC(=O)c1cn(CC)c2ccc(S(=O)(=O)N(C)C)cc2c1=O)c1cccc(C)c1`, for which the AC50 under setting [1] was 35.5 µM [falling, single point].
As for `CCN1CCc2c(sc(NC(=O)Nc3ccc(Cl)c(Cl)c3)c2C(N)=O)C1`, the AC50 under setting [1] is 13 µM [falling, partial curve].
Same read-out and setting: the same measure for `COc1ccc(CCNC(=O)C(=O)NCC2OCCN2S(=O)(=O)c2ccc(OC)c(OC)c2)cc1OC` (stereo not drawn): 22.4 µM [rising, single point].
For the molecule `COc1ccc(C(=O)C[n+]2ccc(N(C)C)cc2)cc1`, the AC50 under setting [1] is 6.31 µM [falling, single point].
On to `O=C(COc1ccccc1)NC(=S)Nc1ccc(Br)cn1`, for which the AC50 under setting [1] is 0.794 µM [rising, full curve, poor fit].
Turning to `C/C=C(/C)C(=O)O[C@@H]1[C@H](OC(=O)C=C(C)C)c2c(ccc3ccc(=O)oc23)OC1(C)C`, the AC50 under setting [1] is 2.91 µM [rising, full curve, poor fit].
`COc1cc(/C=C/C(=O)O)ccc1OS(=O)(=O)c1c(C)cc(C)cc1C`: the AC50 under setting [1] was 0.517 µM [falling, full curve].
As for `COc1cc(-c2nnc(NC(=O)CCS(=O)(=O)c3ccccc3)o2)cc(OC)c1OC`, under setting [1], the AC50 is 7.31 µM [rising, partial curve].
As for `COCCOC(=O)c1[nH]c2c(c1C)C(=O)CC(c1ccc(N(C)C)cc1)C2` (stereo not drawn), under setting [1], the AC50 was 18.4 µM [falling, partial curve, poor fit].
As to `O=C(CN1CCN(c2nc(-c3ccc(F)cc3)cs2)CC1)NCc1ccc2c(c1)OCO2`, the AC50 under setting [1] was 29.1 µM [falling, single point].
The same measure, in the same setting: the same measure for `CCOC(=O)c1cccnc1SCc1cc(=O)n2ccccc2n1`: 7.94 µM [falling, partial curve, poor fit].
Consider `OCCN1CCN(c2ncnc3c2cnn3-c2cccc(Cl)c2)CC1`, for which the AC50 under setting [1] was 8.91 µM [falling, partial curve, poor fit].
On to `CC(C)(C)NC(=O)C(c1ccc(O)cc1)N(C(=O)CCC(=O)Nc1nccs1)c1ccccc1F` (stereo not drawn), for which, under setting [1], the AC50 was 11.2 µM [falling, partial curve].
On to `COCCN(CC(=O)NCC1CCCO1)C(=O)CCC(=O)Nc1cc(C)ccn1` (stereo not drawn), for which the half-maximal activity concentration (AC50) under setting [1] is 0.146 µM [falling, full curve, poor fit].
Take `COc1cccc(C2CC(c3ccccc3)n3ncnc3N2)c1` (stereo not drawn): the AC50 under setting [1] is 7.31 µM [falling, partial curve, poor fit].
Same read-out and setting: the same measure for `C(=N\N(Cc1ccccc1)c1ccccc1)/c1ccco1`: 14.1 µM [rising, single point]; for `COC(=O)c1ccc(NC(=O)COc2ccccc2OC)cc1`: 11.2 µM [falling, partial curve, poor fit]; for `COc1ccc(NC(=O)C2CCCN(S(=O)(=O)c3cccc4cccnc34)C2)cc1` (stereo not drawn): 20.6 µM [rising, partial curve, poor fit].
Turning to `CC(=O)N1CCC(N(CCCOC(C)C)S(=O)(=O)c2ccc([N+](=O)[O-])cc2)CC1`, the AC50 under setting [1] is 35.5 µM [rising, single point].
The same measure, in the same setting: the same measure for `CCCn1c(SCC(=O)Nc2nonc2C)nnc1-c1ccoc1C`: 4.11 µM [falling, single point].
For the molecule `CCc1ccc(NC(=O)COC(=O)/C=C/c2ccco2)cc1`, the AC50 under setting [1] was 16.4 µM [rising, single point].
The same measure, in the same setting: the same measure for `COc1cc(/C=C2/SC(=S)N(Cc3ccccc3)C2=O)ccc1O`: 17.8 µM [rising, partial curve].
As to `Cc1ccccc1-n1c(-c2ccc(=O)[nH]n2)n[nH]c1=S`, the AC50 under setting [1] was 35.5 µM [falling, single point].
In the case of `O=C(Nc1ccc(F)cc1)c1ccc2nsnc2c1`, the AC50 under setting [1] was 8.91 µM [falling, partial curve, poor fit].
Take `c1csc(CNc2ncnc3ccc(-c4ccoc4)cc23)c1`: the concentration at half-maximal activity (AC50) under setting [1] is 9.2 µM [rising, partial curve, poor fit] and 4.11 µM [rising, full curve, poor fit].
As for `Oc1ccc(/C=N/Nc2cccc3cccnc23)c(O)c1`, the concentration at half-maximal activity (AC50) under setting [1] was 23.1 µM [falling, single point].
For `O=C(CCSc1nnc(-c2ccc(O)cc2)o1)N1CCOCC1`, the AC50 under setting [1] is 6.31 µM [rising, partial curve].
Still for that read-out and setting: the same measure for `Cc1ccc(C)c(S(=O)(=O)N2CCCOC2CNC(=O)C(=O)NCc2ccccc2)c1` (stereo not drawn): 3.55 µM [rising, single point]; for `COc1cccc2cc(C(=O)Nc3ccccc3C)/c(=N/O)oc12`: 7.08 µM [falling, full curve, poor fit]; for `CC(C)C[C@H](NC(=O)c1nc[nH]c1C(=O)NCc1ccccc1)C(=O)OC(C)(C)C`: 0.112 µM [rising, full curve, poor fit].
Consider `CCN(CCCNC(=O)C1CCN(S(=O)(=O)c2c(C)[nH]c(=O)[nH]c2=O)CC1)c1cccc(C)c1`, for which, under setting [1], the AC50 is 3.66 µM [rising, partial curve, poor fit].
Same read-out and setting: the same measure for `Cc1ccc(N2CCN(/N=C/c3cccs3)CC2)cc1`: 6.51 µM [rising, single point]; for `Cn1c(SCC(=O)N(Cc2ccccc2)C(C)(C)C)nc2ccccc21`: 3.26 µM [falling, partial curve, poor fit].
For the molecule `Cc1cccc([C@@H]2[C@@H]3C(=O)N(Cc4ccccc4)C(=O)[C@@H]3[C@]3(Cc4ccc(Cl)cc4)C(=O)N(c4ccccc4)C(=O)N23)c1`, under setting [1], the AC50 was 4.47 µM [rising, full curve, poor fit].
Consider `COc1ccc(NC(=O)c2onc(C)c2Cl)cc1OC`, for which the AC50 under setting [1] was 29.1 µM [falling, single point].
The same measure, in the same setting: the same measure for `COc1ccc(Cl)cc1NS(=O)(=O)c1cccc(C(=O)NCC2(N(C)C)CCCCC2)c1`: 12.6 µM [falling, partial curve, poor fit]; for `O=C(c1ccccc1F)N1CCN=C1SCc1cccnc1`: 6.51 µM [rising, single point].
Regarding `O=C(COC(=O)c1ccc(S(=O)(=O)Nc2ccccc2)cc1)NCC1CCCO1` (stereo not drawn), under setting [1], the half-maximal activity concentration (AC50) is 6.31 µM [rising, single point].
For `O=C(CN1CCOCCOCCN(CC(=O)Nc2ccccc2)CCOCC1)Nc1ccccc1`, the concentration at half-maximal activity (AC50) under setting [1] is 5.62 µM [rising, single point].
With `COc1ccc(CCNC(=O)c2cc(-c3ccccc3O)n[nH]2)cc1OC`, under setting [1], the AC50 was 6.51 µM [falling, partial curve, poor fit].
For the molecule `CCOC(=O)COc1ccccc1/C=C\[N+](=O)[O-]`, the AC50 under setting [1] was 23.1 µM [falling, partial curve].
On the same count and under the same terms, the same measure for `Cc1ccccc1COCCN1CCN(S(=O)(=O)c2ccccc2)CCC1=O`: 3.16 µM [falling, single point]; for `CC(=O)c1c(C)n(-c2ccccc2)c2ccc(OCC(N)=O)cc12`: 3.98 µM [rising, partial curve, poor fit].
`Cc1sc(NC(=O)c2ccccc2)c(C#N)c1-c1ccccc1`: the AC50 is, setting by setting: under setting [1], 3.26 µM [rising, partial curve, poor fit]; under setting [2], 3.26 µM [falling, partial curve, poor fit].
For `C(=N\Nc1nc(-c2ccccn2)nc2ccccc12)/c1ccccc1`, the AC50 reads like this: under setting [1], 3.16 µM [rising, single point]; under setting [2], 2.82 µM [falling, partial curve, poor fit].
On to `CCOC(=O)c1ccc(NC(=O)Nc2cc(C)on2)cc1`, for which, under setting [1], the AC50 was 0.651 µM [rising, full curve, poor fit].
As for `Clc1ccc(C2=NNC(=NCc3ccccc3)SC2)cc1`, under setting [1], the AC50 was 5.62 µM [falling, full curve].
As for `CCCC(O)(c1ccc(OC)cc1)C(CN1CCOCC1)c1ccccc1` (stereo not drawn), the AC50 under setting [1] is 22.4 µM [falling, partial curve, poor fit].
For `Cc1cc(CN(C)C(=O)CC2C(=O)NCCN2Cc2ccc(-c3ccccc3)cc2)on1` (stereo not drawn), the AC50 under setting [1] was 5.62 µM [falling, partial curve].
`O=C1CC(N(O)c2ccccc2)C(=O)N1c1cc(Cl)cc(Cl)c1` (stereo not drawn): under setting [1], the AC50 was 10 µM [falling, partial curve, poor fit].
Take `Oc1ccc(C2=NN(c3ccccc3)C(c3ccc(F)cc3)C2)cc1` (stereo not drawn): the AC50 under setting [1] is 11.2 µM [rising, partial curve].
Turning to `CC(=O)Nc1cccc(-c2csc(Nc3ccccn3)n2)c1`, under setting [1], the AC50 is 17.8 µM [falling, partial curve, poor fit].
For `Cc1ccccc1NS(=O)(=O)c1ccc(-c2ccc(=O)[nH]n2)o1`, the AC50 under setting [1] was 35.5 µM [falling, partial curve, poor fit].
Regarding `COc1cc(C(C)=O)ccc1COc1ccc(C(=O)OCC(=O)NC(C)(C)C)cc1OC`, the concentration at half-maximal activity (AC50) under setting [1] is 20.6 µM [rising, single point].
